Measurements taken from article PMC7511232 (eLife, 2020).
Results are given in words; binding and its absence hold for the method and conditions named. For some assays here: In cells and extracts the contact can be indirect. Some binding calls cover weakened binding; strength is not graded here. Sequences can lack the tags named with a protein. Each block holds one binder with its values, some of them ahead of it.

Columns and labels:
[1] = target: Atg11(522-583), fusions with GFP and mCherry (S. pombe) (UniProt O14261); experiment: co-IP
[2] = target: Atg11(522-583), yeast two-hybrid fusion (S. pombe) (UniProt O14261); experiment: two-hybrid
[3] = target: Atg11(546-583)Δ tagged with GFP and mCherry respectively (S. pombe) (UniProt O14261); experiment: co-IP
[4] = target: full-length Atg11 tagged with YFP and mCherry respectively (S. pombe) (UniProt O14261); experiment: co-IP
[5] = target: Atg11(522-552), yeast two-hybrid fusion (S. pombe) (UniProt O14261); experiment: two-hybrid
[6] = target: Atg11(522-552), fusions with GFP and mCherry (S. pombe) (UniProt O14261); experiment: co-IP
[7] = target: Atg11(546-583), fusions with GFP and mCherry (S. pombe) (UniProt O14261); experiment: co-IP
[8] = target: Atg11(546-583), yeast two-hybrid fusion (S. pombe) (UniProt O14261); experiment: two-hybrid

- binding [3]: no binding
B3: Atg11(546-583)Δ tagged with GFP and mCherry respectively (protein, UniProt O14261)
chain: MRFRLNDSFSGKSWTIDNVQWTPQNLVAWIMELNIGLSDEAKLLLPNGMSLNETVLNSESDVVIYVLDQNLLTFTYDGDKIPSIPSLKGQPISNVLTGIIADSSSDQWKDKISKCLSLLSDILESSSKIHNQLSVCHDEYSTSIVSPEVAMNYLQRRQSGMKDLLFVFYERLDRVSVSDLLHDFLALPTGSLPITPLKILSTNWTKLDSWLNSISARYAEAQKRVQQCIGAANSIIVSPFKEVPSIKEGDDAYYHLRSVAQDAANILQEILKIESTSTTSQIKPKCNYETEITDCMEKLQSNLSELKSSRKSSLISLKSFWLSFYKVSLRYDALYEYLRQIAEELDRSKFVLSQSRNIFSLYIDILMEALRRTEWQESYNVSHDSSLPLDQEKELSLRKSWLSHFSNLLFNHGQLKYLPVLTRDEISNYLLNIQAHPNYQTFHQMLSNRLSEYLGFPGSPREAVSNTVQANNSLHEKLAMYQNRCNNLEAMLSHQNGFNYNINNDGLSPNAPHPPINEQSNSSQPFYRVSPSIVPLNVIRKLTNRGKEEKIQYLETENEEVLQKYENLQEELSSTRKLLTKNEAAVAEQQSNEEMHSNEPNILNLYSVFEGKVDSLQELYNAFKLQLTSLKQKGEYATLAKDAEAVQHIIEERDYALAEKADLLKLSENRKEQCKILTQKLYTIVFRCNELQSVLRECVTQPGFDSDNERDGHASIPDRQIEFNSKDLQYLYWMDGEDADRNFQEFLNRMSSLDFDSFHNFVVSVLTQAHNHELRWKREFQSNRDKALKAILDSQSKVSLRNFKQGSLVLFLPTRRTAGNKKVWAAFNVNAPHYYLNTQPHLKLESRDWMLGRVTSIEDRTADDSTDKWLRLPSGTIWHLVEAIDERF

- binding [4]: binds
B4: full-length Atg11 tagged with YFP and mCherry respectively (protein, UniProt O14261 1-926)
chain: MRFRLNDSFSGKSWTIDNVQWTPQNLVAWIMELNIGLSDEAKLLLPNGMSLNETVLNSESDVVIYVLDQNLLTFTYDGDKIPSIPSLKGQPISNVLTGIIADSSSDQWKDKISKCLSLLSDILESSSKIHNQLSVCHDEYSTSIVSPEVAMNYLQRRQSGMKDLLFVFYERLDRVSVSDLLHDFLALPTGSLPITPLKILSTNWTKLDSWLNSISARYAEAQKRVQQCIGAANSIIVSPFKEVPSIKEGDDAYYHLRSVAQDAANILQEILKIESTSTTSQIKPKCNYETEITDCMEKLQSNLSELKSSRKSSLISLKSFWLSFYKVSLRYDALYEYLRQIAEELDRSKFVLSQSRNIFSLYIDILMEALRRTEWQESYNVSHDSSLPLDQEKELSLRKSWLSHFSNLLFNHGQLKYLPVLTRDEISNYLLNIQAHPNYQTFHQMLSNRLSEYLGFPGSPREAVSNTVQANNSLHEKLAMYQNRCNNLEAMLSHQNGFNYNINNDGLSPNAPHPPINEQSNSSQPFYRVSPSIVPLNVIRKLTNRKTSFTDSHILRLQDEVNQLRNELDLVNKRNEDLLIELQGKEEKIQYLETENEEVLQKYENLQEELSSTRKLLTKNEAAVAEQQSNEEMHSNEPNILNLYSVFEGKVDSLQELYNAFKLQLTSLKQKGEYATLAKDAEAVQHIIEERDYALAEKADLLKLSENRKEQCKILTQKLYTIVFRCNELQSVLRECVTQPGFDSDNERDGHASIPDRQIEFNSKDLQYLYWMDGEDADRNFQEFLNRMSSLDFDSFHNFVVSVLTQAHNHELRWKREFQSNRDKALKAILDSQSKVSLRNFKQGSLVLFLPTRRTAGNKKVWAAFNVNAPHYYLNTQPHLKLESRDWMLGRVTSIEDRTADDSTDKWLRLPSGTIWHLVEAIDERF

- binding [8]: binds
Binder: KTSFTDSHILRLQDEVNQLRNELDLVNKRNEDLLIELQ (domain or fragment, UniProt O14261 546-583) [Atg11(546-583), yeast two-hybrid fusion]

The remaining lines, values behind:

B1: Atg11(522-583), fusions with GFP and mCherry (domain or fragment, UniProt O14261 522-583)
chain: SSQPFYRVSPSIVPLNVIRKLTNRKTSFTDSHILRLQDEVNQLRNELDLVNKRNEDLLIELQ
- binding [1]: binds

B2: Atg11(522-583), yeast two-hybrid fusion (domain or fragment, UniProt O14261 522-583)
chain: B1 chain
- binding [2]: binds

Binder: SSQPFYRVSPSIVPLNVIRKLTNRKTSFTDS (domain or fragment, UniProt O14261 522-552) [Atg11(522-552), yeast two-hybrid fusion]
- binding [5]: no binding

Binder: SSQPFYRVSPSIVPLNVIRKLTNRKTSFTDS (domain or fragment, UniProt O14261 522-552) [Atg11(522-552), fusions with GFP and mCherry]
- binding [6]: no binding

Binder: KTSFTDSHILRLQDEVNQLRNELDLVNKRNEDLLIELQ (domain or fragment, UniProt O14261 546-583) [Atg11(546-583), fusions with GFP and mCherry]
- binding [7]: binds
